Results from paper PMC4200280.
No constants are given. Whether binding was seen depends on the method and setting. In cells and extracts the contact can be indirect. Some results given as binding are weak or reduced against the parent protein; the word gives no strength. Tags and fused reporters may be left off the sequences shown. Values belong to the molecule of their own block, whether it stands above or below them.

Chains of the proteins cited; added tags and fusions are not shown.
UniProt P36012: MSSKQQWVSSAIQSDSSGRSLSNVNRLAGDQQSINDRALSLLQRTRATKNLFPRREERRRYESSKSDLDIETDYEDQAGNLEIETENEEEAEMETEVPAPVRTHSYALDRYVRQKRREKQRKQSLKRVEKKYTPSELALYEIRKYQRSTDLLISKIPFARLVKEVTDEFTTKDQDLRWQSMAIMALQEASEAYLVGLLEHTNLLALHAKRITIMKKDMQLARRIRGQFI

Legend:
[1] = target: T1, Psh1-HA (budding yeast) (UniProt Q12161); assay: co-IP; lysates of Cse4-Myc/Psh1-HA strains, WT or cka2Δ; Psh1-HA precipitated, Cse4-Myc detected; control strain lacking Psh1-HA
T1 sequence: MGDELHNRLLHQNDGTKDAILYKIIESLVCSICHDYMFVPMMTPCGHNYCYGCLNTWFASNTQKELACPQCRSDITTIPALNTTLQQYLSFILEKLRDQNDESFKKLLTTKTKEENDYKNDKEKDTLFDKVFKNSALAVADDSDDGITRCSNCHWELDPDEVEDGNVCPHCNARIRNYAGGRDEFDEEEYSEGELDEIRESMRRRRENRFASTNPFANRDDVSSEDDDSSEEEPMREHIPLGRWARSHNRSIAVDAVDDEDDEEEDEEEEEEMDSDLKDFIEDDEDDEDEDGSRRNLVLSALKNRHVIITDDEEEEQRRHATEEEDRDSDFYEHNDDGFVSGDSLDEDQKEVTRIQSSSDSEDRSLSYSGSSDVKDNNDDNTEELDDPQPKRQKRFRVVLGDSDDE

[2] = target: Cse4 (overexpressed from the GAL promoter on a 2-μm plasmid) (budding yeast) (UniProt P36012); assay: co-IP; cell lysates of strains overexpressing Cse4 from the GAL promoter; IP with anti-Cse4 antibody, Psh1-HA detected; control IP without antibody
[3] = target: T2, Ckb1-FLAG (budding yeast) (UniProt P43639); assay: co-IP; whole cell extract; anti-FLAG IP of Ckb1-FLAG or Ckb2-FLAG, Psh1-HA detected by Western blot; 50 mM Tris pH 7.5, 150 mM NaCl, 0.1% Nonidet P-40, 4 °C
T2 sequence: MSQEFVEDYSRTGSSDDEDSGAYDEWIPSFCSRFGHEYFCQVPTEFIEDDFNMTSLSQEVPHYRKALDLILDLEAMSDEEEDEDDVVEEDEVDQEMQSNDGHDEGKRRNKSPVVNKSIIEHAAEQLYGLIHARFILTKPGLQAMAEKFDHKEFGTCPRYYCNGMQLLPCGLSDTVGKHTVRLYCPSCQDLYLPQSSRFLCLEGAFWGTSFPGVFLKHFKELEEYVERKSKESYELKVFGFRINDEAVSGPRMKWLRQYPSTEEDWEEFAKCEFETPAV

[4] = target: T3, Ckb2-FLAG (budding yeast) (UniProt P38930); assay: as above
T3 sequence: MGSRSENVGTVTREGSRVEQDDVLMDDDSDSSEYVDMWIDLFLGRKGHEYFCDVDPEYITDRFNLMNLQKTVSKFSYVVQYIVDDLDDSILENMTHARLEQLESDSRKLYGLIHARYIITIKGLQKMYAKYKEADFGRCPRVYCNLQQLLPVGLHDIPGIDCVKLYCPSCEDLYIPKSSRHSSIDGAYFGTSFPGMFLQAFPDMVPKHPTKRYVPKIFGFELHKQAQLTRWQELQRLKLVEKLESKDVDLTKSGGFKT

[5] = target: T4, Ubc3-TAP (budding yeast), P14682; assay: co-IP; lysates of Ubc3-TAP/Psh1-HA strains, WT or cka2Δ; Ubc3-TAP precipitated, Psh1-HA detected; control strain lacking Ubc3-TAP; conditions: remark: other sources report otherwise
T4 chain: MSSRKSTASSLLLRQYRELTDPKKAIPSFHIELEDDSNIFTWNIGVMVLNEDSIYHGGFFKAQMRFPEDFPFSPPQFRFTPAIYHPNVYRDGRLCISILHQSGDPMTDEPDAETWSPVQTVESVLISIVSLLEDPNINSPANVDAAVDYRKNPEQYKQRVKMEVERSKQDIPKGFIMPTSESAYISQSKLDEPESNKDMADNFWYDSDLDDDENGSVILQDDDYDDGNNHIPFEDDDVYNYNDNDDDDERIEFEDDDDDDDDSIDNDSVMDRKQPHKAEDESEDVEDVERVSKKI

Molecule: Cse4-Myc (from UniProt P36012 1-229)
- binding [1]: binds

B1: Psh1-HA (enzyme, UniProt Q12161 1-406)
chain: MGDELHNRLLHQNDGTKDAILYKIIESLVCSICHDYMFVPMMTPCGHNYCYGCLNTWFASNTQKELACPQCRSDITTIPALNTTLQQYLSFILEKLRDQNDESFKKLLTTKTKEENDYKNDKEKDTLFDKVFKNSALAVADDSDDGITRCSNCHWELDPDEVEDGNVCPHCNARIRNYAGGRDEFDEEEYSEGELDEIRESMRRRRENRFASTNPFANRDDVSSEDDDSSEEEPMREHIPLGRWARSHNRSIAVDAVDDEDDEEEDEEEEEEMDSDLKDFIEDDEDDEDEDGSRRNLVLSALKNRHVIITDDEEEEQRRHATEEEDRDSDFYEHNDDGFVSGDSLDEDQKEVTRIQSSSDSEDRSLSYSGSSDVKDNNDDNTEELDDPQPKRQKRFRVVLGDSDDE
- binding [2]: binds
- binding [3]: binds
- binding [4]: binds

Results, then the molecule that gave them:

- binding [2]: binds
B2: Psh1-S8A/T2A-HA (enzyme, UniProt Q12161 1-406)
chain: MGDELHNRLLHQNDGTKDAILYKIIESLVCSICHDYMFVPMMTPCGHNYCYGCLNTWFASNTQKELACPQCRSDITTIPALNTTLQQYLSFILEKLRDQNDESFKKLLTTKTKEENDYKNDKEKDTLFDKVFKNSALAVADDADDGITRCSNCHWELDPDEVEDGNVCPHCNARIRNYAGGRDEFDEEEYAEGELDEIRESMRRRRENRFASTNPFANRDDVSSEDDDAAEEEPMREHIPLGRWARSHNRSIAVDAVDDEDDEEEDEEEEEEMDADLKDFIEDDEDDEDEDGSRRNLVLSALKNRHVIIADDEEEEQRRHATEEEDRDSDFYEHNDDGFVAGDALDEDQKEVTRIQSSSDSEDRSLSYSGSSDVKDNNDDNAEELDDPQPKRQKRFRVVLGDADDE

- binding [5]: binds
B3: Psh1-HA, Q12161 1-406 (enzyme)
chain: MGDELHNRLLHQNDGTKDAILYKIIESLVCSICHDYMFVPMMTPCGHNYCYGCLNTWFASNTQKELACPQCRSDITTIPALNTTLQQYLSFILEKLRDQNDESFKKLLTTKTKEENDYKNDKEKDTLFDKVFKNSALAVADDSDDGITRCSNCHWELDPDEVEDGNVCPHCNARIRNYAGGRDEFDEEEYSEGELDEIRESMRRRRENRFASTNPFANRDDVSSEDDDSSEEEPMREHIPLGRWARSHNRSIAVDAVDDEDDEEEDEEEEEEMDSDLKDFIEDDEDDEDEDGSRRNLVLSALKNRHVIITDDEEEEQRRHATEEEDRDSDFYEHNDDGFVSGDSLDEDQKEVTRIQSSSDSEDRSLSYSGSSDVKDNNDDNTEELDDPQPKRQKRFRVVLGDSDDE
